Measured values published in patent publication US7105647 (WISCONSIN ALUMNI RESEARCH FOUNDATION, dated 2006).

Target: T1, Hsp90
T1 construct: Endogenous Hsp90 of the translation lysate
Assay: co-IP of 35S-labelled in vitro translated protein with anti-Hsp90 antibody 3G3p90, phosphoimager
Method: Coimmunoprecipitation with Hsp90. Each MOP construct was in vitro translated in the presence of [^35S]-methionine in a TNT coupled transcription/translation system (Promega). Hsp90 immunoprecipitation assays were performed with monoclonal antibody 3G3p90 or a control IgM antibody, TEPC 183 (Sigma) essentially as described. Each immunoprecipitation was subjected to SDS-PAGE, and the resulting gel was dried. The level of radioactivity in each coprecipitated protein band was quantified on a Bio-Rad GS-363 Molecular Imager System. The amount of protein immunoprecipitated with the Hsp90 antibody is presented as a percentage of the amount of murine AHR immunoprecipitated in parallel assays.
4. Interaction of MOPs with Hsp90. In an effort to assess a MOP's ability to interact with Hsp90, we performed coimmunoprecipitation assays with anti Hsp90 antibodies. Given the remarkable stability of the Hsp90 complex with the AHR from the C57BL/6J mouse, we used this receptor species as a reference and compared all interactions relative to it. As additional controls, we immunoprecipitated ARNT and the human AHR as negative and positive controls, respectively. Despite our ability to readily detect huAHR-Hsp90 interactions, we were unable to detect ARNT, MOP2 or MOP5 interactions with Hsp90. In contrast, huAHR, MOP1, MOP3 and MOP4 all immunoprecipitated with HSP90-specific antisera. […]

B1: MOP3 (other)
chain: MSKEAVSLWALTVSLQPPVPLCVCREMTGSGRRKQQCVTLPFISRELCFYLLLFPPPRLEYTEHQGGIKNAREAHSQIEKRRRDKMNSFIDELASLVPTCNAMSRKLDKLTVLRMAVQHMKTLRGATNPYTEANYKPTFLSDDELKHLILRAADGFLFVVGCDRGKILFVSESVFKILNYSQNDLIGQSLFDYLHPKDIAKVKEQLSSSDTAPRERLIDAKTGLPVKTDITPGPSRLCSGARRSFFCRMKCNRPSVKVEDKDFPSTCSKKKADRKSFCTIHSTGYLKSWPPTKMGLDEDNEPDNEGCNLSCLVAIGRLHSHVVPQPVNGEIRVKSMEYVSRHAIDGKFVFVDQRATAILAYLPQELLGTSCYEYFHQDDIGHLAECHRQVLQTREKITTNCYKFKIKDGSFITLRSRWFSFMNPWTKEVEYIVSTNTVVLANVLEGGDPTFPQLTASPHSMDSMLPSGEGGPKRTHPTVPGIPGGTRAGAGKIGRMIAEEIMEIHRIRGSLRSSCGSSPLNITSTPPPDASSPGGKKILNGGTPDIPSSGLLSGQAQENPGYPYSDSSSILGENPHIGIDMIDNDQGSSSPSNDEAAMAVIMSLLEADAGLGGPVDFSDLPWPL
notes: also called huMOP3
For B1, the “percent of the amount of murine AHR immunoprecipitated with the Hsp90 antibody” value was 71%.
